Source: article PMC2913955, “Whole-cell fungal transformation of precursors into dyes” (Microbial Cell Factories, 2010)

Tested on: Trametes versicolor (TV7)
Experiment: Whole-cell biotransformation in liquid culture, biomass immobilized on PMS
Type: cell-based
Conditions: strain TV7 on PMS, 1 mM precursor, 10 times diluted GPA, 48 hours, at product λmax (2,5DABS: sum of 460 and 544 nm)

Oc1ccc2ccc(O)cc2c1 [DHN, 2,7-dihydroxynaphtalene]
Absorbance of product (Abs): 0.18 ± 0.03 Abs
